Reference: paper doi:10.1101/2025.10.17.25337589
No constants are given. Whether binding was seen depends on the method and setting. In cells and extracts the contact can be indirect. Some results given as binding are weak or reduced against the parent protein; the word gives no strength. For part of these data: Where a sequence is shown, tags or fusion partners need not be part of it.

T1: HA-tagged human RBMX p.R381* (human) (UniProt P38159)
T1 sequence: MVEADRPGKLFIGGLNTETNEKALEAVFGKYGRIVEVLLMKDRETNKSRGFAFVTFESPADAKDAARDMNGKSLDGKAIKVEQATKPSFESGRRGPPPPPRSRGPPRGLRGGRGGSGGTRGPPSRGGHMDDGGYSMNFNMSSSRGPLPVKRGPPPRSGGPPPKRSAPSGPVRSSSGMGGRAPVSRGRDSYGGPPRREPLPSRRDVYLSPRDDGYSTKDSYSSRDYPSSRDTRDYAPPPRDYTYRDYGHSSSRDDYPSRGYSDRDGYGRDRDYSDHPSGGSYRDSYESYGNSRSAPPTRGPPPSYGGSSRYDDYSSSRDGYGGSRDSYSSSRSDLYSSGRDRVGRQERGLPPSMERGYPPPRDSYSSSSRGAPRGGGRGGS


Legend:
Experiment in all cases: co-IP
[1] = target: HA-tagged wild-type human RBMXL1 (human) (UniProt Q96E39)
[2] = target: T1, HA-tagged human RBMX p.R381* (human)
[3] = target: HA-tagged wild-type human RBMX (human) (UniProt P38159)

binding [1] | binding [2] | binding [3] | Binder
binds | – | – | MATR3 (protein, UniProt P43243 1-847) MSKSFQQSSLSRDSQGHGRDLSAAGIGLLAAATQSLSMPASLGRMNQGTARLASLMNLGMSSSLNQQGAHSALSSASTSSHNLQSIFNIGSRGPLPLSSQHRGDADQASNILASFGLSARDLDELSRYPEDKITPENLPQILLQLKRRRTEEGPTLSYGRDGRSATREPPYRVPRDDWEEKRHFRRDSFDDRGPSLNPVLDYDHGSRSQESGYYDRMDYEDDRLRDGERCRDDSFFGETSHNYHKFDSEYERMGRGPGPLQERSLFEKKRGAPPSSNIEDFHGLLPKGYPHLCSICDLPVHSNKEWSQHINGASHSRRCQLLLEIYPEWNPDNDTGHTMGDPFMLQQSTNPAPGILGPPPPSFHLGGPAVGPRGNLGAGNGNLQGPRHMQKGRVETSRVVHIMDFQRGKNLRYQLLQLVEPFGVISNHLILNKINEAFIEMATTEDAQAAVDYYTTTPALVFGKPVRVHLSQKYKRIKKPEGKPDQKFDQKQELGRVIHLSNLPHSGYSDSAVLKLAEPYGKIKNYILMRMKSQAFIEMETREDAMAMVDHCLKKALWFQGRCVKVDLSEKYKKLVLRIPNRGIDLLKKDKSRKRSYSPDGKESPSDKKSKTDGSQKTESSTEGKEQEEKSGEDGEKDTKDDQTEQEPNMLLESEDELLVDEEEAAALLESGSSVGDETDLANLGDVASDGKKEPSDKAVKKDGSASAAAKKKLKKVDKIEELDQENEAALENGIKNEENTEPGAESSENADDPNKDTSENADGQSDENKDDYTIPDEYRIGPYQPNVPVGIDYVIPKTGFYCKLCSLFYTNEEVAKNTHCSSLPHYQKLKKFLNKLAEERRQKKET
binds | – | – | SRSF7 (protein, UniProt Q16629 1-238) MSRYGRYGGETKVYVGNLGTGAGKGELERAFSYYGPLRTVWIARNPPGFAFVEFEDPRDAEDAVRGLDGKVICGSRVRVELSTGMPRRSRFDRPPARRPFDPNDRCYECGEKGHYAYDCHRYSRRRRSRSRSRSHSRSRGRRYSRSRSRSRGRRSRSASPRRSRSISLRRSRSASLRRSRSGSIKGSRYFQSPSRSRSRSRSISRPRSSRSKSRSPSPKRSRSPSGSPRRSASPERMD
binds | binds | binds | HNRNPDL (protein, UniProt O14979 1-420) MEVPPRLSHVPPPLFPSAPATLASRSLSHWRPRPPRQLAPLLPSLAPSSARQGARRAQRHVTAQQPSRLAGGAAIKGGRRRRPDLFRRHFKSSSIQRSAAAAAATRTARQHPPADSSVTMEDMNEYSNIEEFAEGSKINASKNQQDDGKMFIGGLSWDTSKKDLTEYLSRFGEVVDCTIKTDPVTGRSRGFGFVLFKDAASVDKVLELKEHKLDGKLIDPKRAKALKGKEPPKKVFVGGLSPDTSEEQIKEYFGAFGEIENIELPMDTKTNERRGFCFITYTDEEPVKKLLESRYHQIGSGKCEIKVAQPKEVYRQQQQQQKGGRGAAAGGRGGTRGRGRGQGQNWNQGFNNYYDQGYGNYNSAYGGDQNYSGYGGYDYTGYNYGNYGYGQGYADYSGQQSTYGKASRGGGNHQNNYQPY
binds | – | – | TRA2B (protein, UniProt P62995 1-288) MSDSGEQNYGERESRSASRSGSAHGSGKSARHTPARSRSKEDSRRSRSKSRSRSESRSRSRRSSRRHYTRSRSRSRSHRRSRSRSYSRDYRRRHSHSHSPMSTRRRHVGNRANPDPNCCLGVFGLSLYTTERDLREVFSKYGPIADVSIVYDQQSRRSRGFAFVYFENVDDAKEAKERANGMELDGRRIRVDFSITKRPHTPTPGIYMGRPTYGSSRRRDYYDRGYDRGYDDRDYYSRSYRGGGGGGGGWRAAQDRDQIYRRRSPSPYYSRGGYRSRSRSRSYSPRRY
